In the experiment the target is C-terminally FLAG-tagged UL31 (HSV-1 nuclear egress complex protein pUL31) (HSV-1) (UniProt P10215). Put plainly: co-IP.

Sequences of proteins named here, by UniProt entry; tags and fusion partners are left off.
UniProt P10215: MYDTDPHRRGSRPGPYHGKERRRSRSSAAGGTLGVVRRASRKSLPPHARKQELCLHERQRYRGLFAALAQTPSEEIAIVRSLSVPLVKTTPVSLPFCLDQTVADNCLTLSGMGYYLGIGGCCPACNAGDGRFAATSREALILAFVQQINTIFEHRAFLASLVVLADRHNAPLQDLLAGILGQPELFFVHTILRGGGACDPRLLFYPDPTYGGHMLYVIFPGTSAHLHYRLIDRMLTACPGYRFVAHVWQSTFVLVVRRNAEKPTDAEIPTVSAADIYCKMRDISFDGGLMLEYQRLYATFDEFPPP

Results are given in words; binding and its absence hold for the method and conditions named. Binding seen in cells or lysates may run through a third protein. Some results given as binding are weak or reduced against the parent protein; the word gives no strength. Sequences can lack the tags named with a protein.

B1: EGFP-tagged UL13 (HSV-1 protein kinase pUL13) (protein, UniProt P04290 1-518)
chain: MDESRRQRPAGHVAANLSPQGARQRSFKDWLASYVHSNPHGASGRPSGPSLQDAAVSRSSHGSRHRSGLRERLRAGLSRWRMSRSSHRRASPETPGTAAKLNRPPLRRSQAALTAPPSSPSHILTLTRIRKLCSPVFAINPALHYTTLEIPGARSFGGSGGYGDVQLIREHKLAVKTIKEKEWFAVELIATLLVGECVLRAGRTHNIRGFIAPLGFSLQQRQIVFPAYDMDLGKYIGQLASLRTTNPSVSTALHQCFTELARAVVFLNTTCGISHLDIKCANILVMLRSDAVSLRRAVLADFSLVTLNSNSTIARGQFCLQEPDLKSPRMFGMPTALTTANFHTLVGHGYNQPPELLVKYLNNERAEFTNHRLKHDVGLAVDLYALGQTLLELVVSVYVAPSLGVPVTRFPGYQYFNNQLSPDFALALLAYRCVLHPALFVNSAETNTHGLAYDVPEGIRRHLRNPKIRRAFTDRCINYQHTHKAILSSVALPPELKPLLVLVSRLCHTNPCARHALS
Regarding B1, the binding entry is “binds”.

For the origin of these results see publication doi:10.1101/2023.03.20.533584.
